Experimental data from paper PMC4939155.

Chains of the proteins cited; added tags and fusions are not shown.
UniProt P62627: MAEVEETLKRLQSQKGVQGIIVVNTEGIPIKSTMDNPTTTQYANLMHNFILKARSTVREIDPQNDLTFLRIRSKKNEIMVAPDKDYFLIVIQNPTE

B1: IFT-139 (Ttc21b) (protein, UniProt Q0HA38 1-1315)
chain: MDSQGLKTLINYYCQERYYHHVLLVASEGMKKYSSDPVFRFYHAYGTLMEGKAQEALREFEAIKNKQDVSLCSLMALMYVHKMSPNPDREAILELDTKMKEQRKEAGRKALYHAGLFLWHIGRHDKAREYIDRMSKMPHDSNEGPILKAWLDITRGKEPYAKKALRYFEEGLQDGNDIFALLGKVLCLEIRQNYSGALETVSQIIVNFPSFLPAFEKKMKLQLALQDWDQTVETAQRLLLQDNHNVEALRMLALYYLCREGDVEKAATKLENLGNALDVMEPQNAQLFYKITLAFSRTCGRNQLILQKVQSFLEKAFSLTPQQAEIATELGYQMILQGKVKEAWKWYRTAMTLNESNISAVTGLIRCQLIEGQLQDADQQLEFFSEFQQSMGKSAELMYLHAVLATKKNNRQDEVINLLNDVVNTHFSHLEDLPLGIQYFEKLNPDFLLEVVTEYLNLCPIQPAGPGQPLSPVLRRCSSVLETIIRSVPGLPQAVFLMAKVKYLSGDTEAAYNNLQHCLEHSPSYAEAHLLMAQVYLSQDKVKLCSQSLELCLSYNFNVREYPLYHLIKAQSQKKMGEVAEAIKTLHMAMNLPGMRRSRASSKSKHRTEVDASHRLSIFLELVEVHRLNGEQHEAAKVLQDAIHEFSGTCEELRVTIANADLALAQGDTDRALSMLRNVTTEQPYFIEAKEKMADIYLKHRKEKMLYITCYREIAERMPSPRSFLLLGDAYMNIQEPEEAIVAYEQALNQNPKDGTLARKIGKALVKTHNYSKAITYYEAALKSGQQNCLCYDLAELLLRLKLYEKAEKVLQHSLAHEPVSELSALMVDGRSQVLLAKVYSKMERPSDAIAALQQARELQARILKRVQMEQPDAVPSQKHFAAEICAEIAKHSAAQRDYEKAITFYREALVHCETDSKIMLELAQLYLAQEDLDASLRHCALLLQRDQDNEPATMLMADLMFRKQDYEQAVYHLQQLLDRKPDNFMTLSRLIDLLRRCGKLEDVPRFFLMAEKHNSRTKLEPGFQYCKGLHFWYTGEPNDALRHFNKARKDSDWGQNALYNMIEICLNPDNETIGGEVFENLNGDLGTSPEKQESVQLAVRTAEKLLKELKPQTVQGRLQLRIMENCCLMATKQKSSVEQALNTFTEIAASEKDHIPALLGMATAYMILKQTPKARNQLKRIAKMPWNPIEAEDLEKSWLLLADIYIQSAKYDMAEELLKRCLCHNRSCCKAYEYMGYIMEKEQAYTDAAFNYEMAWKHSNQTNPAVGYKLAFNYLKAKRYVDAIDVCHQVLEAHPTYPKIRKDILDKARASLRP
B2: IFT-144 (protein, UniProt Q3UGF1 1-1341)
chain: MKRVFSLLEKSWLGAPIQFAWQKSSGNYLAVTGADYIVKIFDRHGQKRSEISLPGNCVTMDWDKDGDILAVIAEKSSCIYLWDANTNKTSQLDNGMRDQMSFLLWSKIGSFLAVGTIKGNLLIYNHQTSRKIPVLGKHTKKITCGCWNSENLLALGGEDKMITVSNQEGDTIRQTPVKSEPSDIKFSMSKTDERISSAENTISAVVGKKMLFLFHLNEPDNPVDLEFQQAYGNIVCYSWYGDGYIMIGFSRGTFLAISTHFPEVGQEIFKARDHKDNLTSVALSQTLNKAATCGDNCIKIHDLTELRDMYAIINLDDENKGLGTLSWTDDGQLLALSTQRGSLHVFLTKLPILGDACHTRIAYLTSLLEVTVANLIEGEPPITVSVDVEPTFVAVGLYHLAVGMNNRAWFYVLGENVVKKLKDVEYLGTVASICLHSDYAAALFEGKIQLHLIENEMLDAQEERETRLFPAVDDKCRILCHALTSDFLIYGTDTGIIHYFFIEDWQFVNDYRHPVGVKKLFPDPNGTRLVFIDEKSDGFVYCPVNDATYEIPDFSPTIKGVLWENWPMDKGVFIAYDDDKVYTYAFHKDTIQGSKVILAGSTKLPFSHKPLLLYNGELTCQTQSGKINSIYLSTHSFLGSMKDTEPTDLRQMLTQTLLLKRFSDAWDICKMLNDRTSWSELAKACLHHMEVEFAIRVSRTMGDVGTVMSLEQIKGIEDYNLLAGHLAMFTNDFNLAQDLYLASNCPVAALEMRRDLQHWDSALQLAKRLAPDQIPFISKEYAIQLEFTGDYVNALAHYEKGITGDNKEHDEVCLAGVAQMSIRMGDIRRGANQALKHPSRVLKRDCGAILENMKQFSEAAQLYEKGQYYDRAASVYIRCKNWAKVGELLPHVSSPKIHLQYAKAKEADGRYKEAVVAYENAKQWNSVIRIYLDHLNNPEKAVSIVRETQSLDGAKMVARFFLQLGDYGSAIQFLVLSKCNNEAFTLAQQHNKMEIYADIIGAEDTTNEDYQSIALYFEGEKRHFQAGKFFLLCGQYSRALKHFLKCPSSEDNVAIEMAIETVGQAKDELLTNQLIDHLMGESDGMPKDAKYLFRLYMALKQYREAARTAIIIAREEQSAGNYRNAHDVLFSMYAELKAQKIKIPSEMATNLMILHSYILVKIHVKSGDHMKGARMLIRVANNISKFPSHIVPILTSTVIECHRAGLKNSAFSFAAMLMRPEYRNKIDAKYKKKIEAMVRRPDTSETEEATTPCPFCQFLLPECELLCPGCKNNIPYCIATGRHMLKDDWTMCPHCGFPALYSEFKILLNSESTCPMCSERLNSSQLKKITDCSQYLRTEME
B3: Radial spoke head protein 6 homolog A (protein, UniProt Q8CDR2 1-708)
chain: MGEPPPNPDPSQTRRASQGSERARSQEYSQPLLTIPEDGLNRPPPQRGSRSSQGSQDLQGTGLPHWPQRSSLVPDVQGDEGTEYHQSMPLGYTPGFPMEFSQQGYLDDSRMMEQFPQGQDLLEQLESTYQGSASGILGQLNLYPREDEIFSQDTQHGPYLRDDPSLHLRPSDLGFMPIVGEVPDPEPRELAIQNAKAYLLRTSMSCNLSLYEHLVNLLTKILNQRPEDPLSILESLNRTMQWEWFHPKLDTLRDDPEMQPTYEMAEKQKALFIRGGGEGEQEMEEEVTDSPVPNIMETAFYFEQAGVGLSSDESFRIFLALKQLVEQQPIHMCRFWGKILGLSRSYLVAEVEFREGEEEGEEEEVEEMMEGGEVLETHGEEEGEEDEEKVVDSVPKPQWKPPPIIPKEESRSGTNKYLYFVCNEPGRPWTRLPHVTPAQIVCARKIKKFFTGFLDTPVISYPPFPGNEANYLRAQIARISAATHISPLGFYQFGEEEGDEEEEGGAGRDSFEENPDFEGIPVLELVDSMANWVHHTQHILPQGRCTWVNPLQKTEEEEELGEEEEKADEAMEEVEQEVGPPLLTPLSEDAEIMHLSPWTTRLSCSLSPQYSVAIVRSNLWPGAYAYATGKKFENIYIGWGHKYSPENFNPMLPALIQQEYPSGPEITEMSDPTVEEEQALKAAQEQALAAAEEEEEDEEEEEDEDLED
B4: Radial spoke head protein 9 homolog (protein, UniProt Q9D9V4 1-276)
chain: MDADSLLLSLELASGSGQGLSPDRRASLLTSLMLVKRDYRFARVLFWGRILGLVADYYIAQGLSEDQLAPRKTLYSLNCTEWSLLPPATEEMAMQISVVSGRFMGDPSHEYEHTELQKVNEGEKVFDEEVVVQIKEETRLVSIIDQIDKAVAIIPRGALFKTPFGVTHVNRTFEGLPLSEVRKLSSYFHFREAIDLKNKTLLEKSDLEPSLDFLDSLEYDIPRGSWSIQMERGNALVVLRSLLWPGLTFYHAPRTKNYGYIYVGTGEKNMDLPFML
B5: IFT-122 (protein, UniProt Q6NWV3 1-1182)
chain: MRAVLTWRDKAEQCIYDLAFKPDGTQLILAAGNRLLVYDTSDGTLLQPLKGHKDTVYCVAYAKDGKRFASGSADKSIIIWTSKLEGILKYTHNDSIQCVSYNPVTHQLASCSSSDFGLWSPEQKSVSKHKSSSKITCCSWTNDGQYLALGMANGIISIRNKNGEEKVKIERPGGSLSPIWSICWNPSREEHNDILAVADWGQKLSFYQLSGKQIGKDRPLNFDPCCISYFTKGEYILVGGSDKQVSLFTKDGVRLGTVGEQNSWVWTCRVKPDSNYVVVGCQDGTISFYQLIFSTVHGLYKDRYAYRDSMTDVIVQHLITEQKVRIKCRELVKKIAIYKNRLAIQLPEKILIYELYSEDSTDMHYRVKEKIVKKFECNLLVVCADHIILCQEKRLQCLSFSGVKEREWQMESLIRYIKVIGGPAGREGLLVGLKNGQILKIFVDNLFAIVLLKQATAVRCLDMSASRNKLAVVDENDTCLVYDIHTKELLFQEPNANSVAWNTQCEDMLCFSGGGYLNIKASTFPVHQQKLQGFVVGYNGSKIFCLHVFSMSAVEVPQSAPMYQYLDRKMFKEAYQIACLGVTDADWRELAMEALEGLEFETARKAFTRVQDLRYLELISSIEERKKRGETNNDLFLADVFSYQGKFHEAAKLYKRSGHENLALDMYTDLCMFEYAKDFLGSGDPKETKMLITKQADWARNINEPKAAVEMYISAGEHAKAIEISGSHGWVDMLIDIARKLDKAEREPLLMCACYFKKLDSPGYAAETYLKIGDLKSLVQLYVDTKRWDEAFALGEKHPEFKDDVYVPYAQWLAENDRFEEAQKAFHKAGRQGEAVRVLEQLTHNAVVESRFNDAAYYYWMLSMQCLDMAQDPAQKDAMLDKFHHFQHLAELYHGYQTIHRYTEEPFSFDLPETLFNISKFLLHSLTKATPLGISKVNTLFTLAKQSKALGAYKLARHAYDKLRGLQIPARIQKSIELGTLTIRSKPFHDSEELVPLCYRCSTNNPLLNNLGNVCINCRQPFIFSASSYEVLHLVEFYLEEGITDEEAVALIDLEAPRHKREGKWRETSSNNSQTLKLDETMDSIGEDDPFTAKLSFEQGSSEFVPVVVNRSVLRSMSRRDVLIKRWPPPLQWQYFRSLLPDASITMCPSCFQMFHSEDYELLVLQHACCPYCRRRIDDTGP
B6: IFT-43 (protein, UniProt Q9DA69 1-206)
chain: MDDLLDLGEERRRSSATSGAKMGRRAHQESTQAENYLNSKNSSLTQTGEAPPPKPPRRQGGWADDSMKMAKLGKKVSEEMEDHRLRQQNLMGSDDDDIPVIPDLEDVQEEDFVLQVASPPSIQVNRVMTYRDLDNDLMKYSAFQTLDGEIDLKLLTKVLAPEHEVREDDVGWDWDHLYTEVSSELLTEWDLLRAEKEDPVGPSRYI

Target: T1, NWC protein (mouse (endogenous in testes)) (UniProt Q9CQI4)
T1 sequence: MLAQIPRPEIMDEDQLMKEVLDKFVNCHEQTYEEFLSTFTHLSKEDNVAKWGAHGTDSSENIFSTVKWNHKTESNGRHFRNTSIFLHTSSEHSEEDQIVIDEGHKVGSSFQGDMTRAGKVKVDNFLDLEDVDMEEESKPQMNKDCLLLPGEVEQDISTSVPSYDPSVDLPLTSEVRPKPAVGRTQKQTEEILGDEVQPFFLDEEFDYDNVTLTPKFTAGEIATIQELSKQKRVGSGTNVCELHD
Assay: affinity purification with mass spectrometry; Pierce Co-Immunoprecipitation Kit; anti-NWC polyclonal Ab285 (15 ug) immobilised on agarose resin; cleared testes lysates of wild-type mice, overnight at 4 °C; NWC-KOMPcre testes lysates and control rabbit IgG as negative controls; eluates analysed by LC-MS-MS/MS; four independent experiments

binding, binds:
Dynein light chain roadblock-type 1 (from UniProt P62627 1-96), Carbonic anhydrase 2 (from UniProt P00920 1-260), B1, B2, B3, B4, B5, B6

These are yes or no findings as the source states them, for the method shown. In cells and extracts the contact can be indirect. These calls come from enrichment with a bait or labelling near it, and not all partners need be listed.
